PubChem BioAssay AID1224830, NIAID, 2016
Shown is one part, drawn at random, of about 18,000 reagents. In the full data, about 2,900 (16%) are marked active. 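Calls are made per well; low scores hint the gene aids the LPS response, high scores that it dampens it.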 Repeated entries: four replicate wells of each siRNA pool.

Assay: 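Genes whose knock-down alters the TNF-alpha reporter response to LPS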 (primary screen)
System: human THP-1 monocytic leukaemia cells, TNF dual-luciferase reporter clone, PMA-differentiated to macrophage-like cells
Reagent: siRNA pool against human genes, 50 nM
Time to read-out: LPS for 4 h, given about 3 days after siRNA transfection
Treatment: bacterial LPS (TLR4 ligand), 10 ng/ml
Measurement: 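TNF firefly reporter luminescence divided by renilla, normalised to the plate median, then turned into a robust z-score for each replicate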
Reading the numbers: TNF reporter robust z-score: higher = stronger TNF reporter response to LPS
Active means: 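a well is active when its z-score exceeds 2.8 or falls below -1.5; control wells carry no call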

BEGAIN
- TNF reporter robust z-score: 5.15
- outcome: active

BEGAIN
- TNF reporter robust z-score: 2.52
- outcome: inactive

BEGAIN
- TNF reporter robust z-score: 0.84
- outcome: inactive

BEGAIN
- TNF reporter robust z-score: -0.14
- outcome: inactive

S100Z
- TNF reporter robust z-score: 0.12
- outcome: inactive

S100Z
- TNF reporter robust z-score: 1.16
- outcome: inactive

S100Z
- TNF reporter robust z-score: -0.27
- outcome: inactive

S100Z
- TNF reporter robust z-score: 0.14
- outcome: inactive

RCC1L
- TNF reporter robust z-score: 0.74
- outcome: inactive

RCC1L
- TNF reporter robust z-score: 0.75
- outcome: inactive

RCC1L
- TNF reporter robust z-score: 0.09
- outcome: inactive

RCC1L
- TNF reporter robust z-score: 2.13
- outcome: inactive

TRIM47
- TNF reporter robust z-score: -0.93
- outcome: inactive

TRIM47
- TNF reporter robust z-score: -1.5
- outcome: inactive

TRIM47
- TNF reporter robust z-score: -0.06
- outcome: inactive

TRIM47
- TNF reporter robust z-score: 0.29
- outcome: inactive

GABRB3
- TNF reporter robust z-score: -1.09
- outcome: inactive

GABRB3
- TNF reporter robust z-score: -0.87
- outcome: inactive

GABRB3
- TNF reporter robust z-score: -0.99
- outcome: inactive

GABRB3
- TNF reporter robust z-score: -0.6
- outcome: inactive

CACNA1A
- TNF reporter robust z-score: 0.53
- outcome: inactive

CACNA1A
- TNF reporter robust z-score: 1.32
- outcome: inactive

CACNA1A
- TNF reporter robust z-score: 1.2
- outcome: inactive

CACNA1A
- TNF reporter robust z-score: 1.1
- outcome: inactive

TRPM8
- TNF reporter robust z-score: -1.47
- outcome: inactive

TRPM8
- TNF reporter robust z-score: -0.69
- outcome: inactive

TRPM8
- TNF reporter robust z-score: -0.98
- outcome: inactive

TRPM8
- TNF reporter robust z-score: -0.03
- outcome: inactive

FKBP11
- TNF reporter robust z-score: 1.09
- outcome: inactive

FKBP11
- TNF reporter robust z-score: 0.97
- outcome: inactive

FKBP11
- TNF reporter robust z-score: 1.57
- outcome: inactive

FKBP11
- TNF reporter robust z-score: 2.83
- outcome: active
